# Results are given in words; binding and its absence hold for the method and conditions named. Where a sequence is shown, tags or fusion partners need not be part of it.
# T1: HISTONE … 9 (HDA9), yeast two-hybrid fusion (Arabidopsis thaliana) (UniProt Q8H0W2)
# T1 sequence: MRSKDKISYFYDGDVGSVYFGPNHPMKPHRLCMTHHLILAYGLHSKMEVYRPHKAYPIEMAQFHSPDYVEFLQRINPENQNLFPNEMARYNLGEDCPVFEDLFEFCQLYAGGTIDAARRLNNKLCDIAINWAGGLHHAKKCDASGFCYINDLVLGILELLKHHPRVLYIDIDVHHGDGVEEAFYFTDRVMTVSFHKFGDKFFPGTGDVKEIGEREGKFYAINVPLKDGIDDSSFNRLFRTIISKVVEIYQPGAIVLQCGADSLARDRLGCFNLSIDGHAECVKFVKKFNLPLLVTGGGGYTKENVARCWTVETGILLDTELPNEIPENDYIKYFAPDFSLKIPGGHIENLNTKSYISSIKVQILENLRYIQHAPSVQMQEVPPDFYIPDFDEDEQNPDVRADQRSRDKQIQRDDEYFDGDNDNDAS
# B1: ABF1, yeast two-hybrid fusion (protein, UniProt Q9M7Q5 1-392)
# chain: MGTHIDINNLGGDTSRGNESKPLARQSSLYSLTFDELQSTLGEPGKDFGSMNMDELLKNIWTAEDTQAFMTTTSSVAAPGPSGFVPGGNGLQRQGSLTLPRTLSQKTVDEVWKYLNSKEGSNGNTGTDALERQQTLGEMTLEDFLLRAGVVKEDNTQQNENSSSGFYANNGAAGLEFGFGQPNQNSISFNGNNSSMIMNQAPGLGLKVGGTMQQQQQPHQQQLQQPHQRLPPTIFPKQANVTFAAPVNMVNRGLFETSADGPANSNMGGAGGTVTATSPGTSSAENNTWSSPVPYVFGRGRRSNTGLEKVVERRQKRMIKNRESAARSRARKQAYTLELEAEIESLKLVNQDLQKKQAEIMKTHNSELKEFSKQPPLLAKRQCLRRTLTGPW
# B2: ABF2, yeast two-hybrid fusion (protein, UniProt Q9M7Q4 1-416)
# chain: MDGSMNLGNEPPGDGGGGGGLTRQGSIYSLTFDEFQSSVGKDFGSMNMDELLKNIWSAEETQAMASGVVPVLGGGQEGLQLQRQGSLTLPRTLSQKTVDQVWKDLSKVGSSGVGGSNLSQVAQAQSQSQSQRQQTLGEVTLEEFLVRAGVVREEAQVAARAQIAENNKGGYFGNDANTGFSVEFQQPSPRVVAAGVMGNLGAETANSLQVQGSSLPLNVNGARTTYQQSQQQQPIMPKQPGFGYGTQMGQLNSPGIRGGGLVGLGDQSLTNNVGFVQGASAAIPGALGVGAVSPVTPLSSEGIGKSNGDSSSLSPSPYMFNGGVRGRKSGTVEKVVERRQRRMIKNRESAARSRARKQAYTVELEAEVAKLKEENDELQRKQARIMEMQKNQETEMRNLLQGGPKKKLRRTESGPW
# B3: ABF3, yeast two-hybrid fusion (protein, UniProt Q9M7Q3 1-454)
# chain: MGSRLNFKSFVDGVSEQQPTVGTSLPLTRQNSVFSLTFDEFQNSWGGGIGKDFGSMNMDELLKNIWTAEESHSMMGNNTSYTNISNGNSGNTVINGGGNNIGGLAVGVGGESGGFFTGGSLQRQGSLTLPRTISQKRVDDVWKELMKEDDIGNGVVNGGTSGIPQRQQTLGEMTLEEFLVRAGVVREEPQPVESVTNFNGGFYGFGSNGGLGTASNGFVANQPQDLSGNGVAVRQDLLTAQTQPLQMQQPQMVQQPQMVQQPQQLIQTQERPFPKQTTIAFSNTVDVVNRSQPATQCQEVKPSILGIHNHPMNNNLLQAVDFKTGVTVAAVSPGSQMSPDLTPKSALDASLSPVPYMFGRVRKTGAVLEKVIERRQKRMIKNRESAARSRARKQAYTMELEAEIAQLKELNEELQKKQVEIMEKQKNQLLEPLRQPWGMGCKRQCLRRTLTGPW
# B4: ABA … 5 (ABI5), yeast two-hybrid fusion (protein, UniProt Q9SJN0 1-442)
# chain: MVTRETKLTSEREVESSMAQARHNGGGGGENHPFTSLGRQSSIYSLTLDEFQHALCENGKNFGSMNMDEFLVSIWNAEENNNNQQQAAAAAGSHSVPANHNGFNNNNNNGGEGGVGVFSGGSRGNEDANNKRGIANESSLPRQGSLTLPAPLCRKTVDEVWSEIHRGGGSGNGGDSNGRSSSSNGQNNAQNGGETAARQPTFGEMTLEDFLVKAGVVREHPTNPKPNPNPNQNQNPSSVIPAAAQQQLYGVFQGTGDPSFPGQAMGVGDPSGYAKRTGGGGYQQAPPVQAGVCYGGGVGFGAGGQQMGMVGPLSPVSSDGLGHGQVDNIGGQYGVDMGGLRGRKRVVDGPVEKVVERRQRRMIKNRESAARSRARKQAYTVELEAELNQLKEENAQLKHALAELERKRKQQYFESLKSRAQPKLPKSNGRLRTLMRNPSCPL
# Target: T1, HISTONE … 9 (HDA9), yeast two-hybrid fusion (Arabidopsis thaliana)
# Assay: two-hybrid; Gal4 system, pDEST22 (activation domain) and pDEST32 (DNA-binding domain) in S. cerevisiae YRG2; growth on SD/-Trp-Leu-His with 25 mM 3-AT; empty vector as negative control
row,binding,Binder
1,no binding,B1
2,no binding,B2
3,no binding,B3
4,no binding,B4
